These are yes or no findings as the source states them, for the method shown.
Molecular target: T1, human legumain, activated (hLEG) (human) (UniProt Q99538)
T1 sequence: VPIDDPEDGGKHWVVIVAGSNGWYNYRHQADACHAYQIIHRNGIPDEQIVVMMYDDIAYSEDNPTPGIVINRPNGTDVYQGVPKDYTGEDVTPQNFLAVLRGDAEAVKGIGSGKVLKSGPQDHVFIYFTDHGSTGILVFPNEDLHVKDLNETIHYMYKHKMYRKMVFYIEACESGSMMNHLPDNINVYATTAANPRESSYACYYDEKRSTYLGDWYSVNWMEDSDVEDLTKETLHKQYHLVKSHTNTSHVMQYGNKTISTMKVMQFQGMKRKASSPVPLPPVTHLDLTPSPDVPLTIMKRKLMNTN
Assay: condition: inhibitor up to 15-fold the enzyme concentration (50 nM enzyme); enzyme inhibition kinetics (Ki, Morrison equation); turnover of 50 μM Z-Ala-Ala-Asn-AMC by 50 nM legumain, 25°C, 20 mM citric acid pH 5.5, 100 mM NaCl, 0.02% Tween 20, 2 mM DTT; inhibitor in 1:2 serial dilutions from 15-fold the enzyme concentration, quadruplicates; both purified

binding: no binding
B1: N-terminal domain of AtCYT6 (AtCYT6-NTD, A35-D127) (domain or fragment, Arabidopsis thaliana, UniProt Q8H0X6-1 35-127, looked up)
chain: ALVGGVGDVPANQNSGEVESLARFAVDEHNKKENALLEFARVVKAKEQVVAGTLHHLTLEILEAGQKKLYEAKVWVKPWLNFKELQEFKPASD
notes: Arabidopsis thaliana cystatin 6, N-terminal cystatin domain, residues A35-D127; Cloned into pET-28; source: E. coli BL21(DE3), purified (Ni-NTA, SEC)

Reference: publication PMC10952133, “Phytocystatin 6 is a context‐dependent, tight‐binding inhibitor of Arabidopsis thaliana legumain isoform β” (The Plant Journal, 2023)
